Where “and” joins values, the source holds several entries; their conditions need not be identical. Identical values can stand only once. Counter-ions that a name gives are not always drawn.
Assay: Experimental velocity of a fragrance ingredient from model powder detergent in water (olfactory detection at 60 cm)
Conditions: Table 2, Class 2 ingredients, 10 g model powder detergent in 2 liters of water, 25° C., dosed at 0.005 to 0.1 wt %

Row | Compound | EV (Experimental velocity)
1 | 5-alkyldihydro-2(3H)-furanone | 8 cm/s
2 | CC(O)COCC(C)O (stereo not shown) [1,1′-oxybis(propan-2-ol)] | 8 cm/s and 6 cm/s
3 | C=CCCC(=O)C1=CC(C)(C)CCC1 [1-(3,3-dimethyl-1-cyclohexen-1-yl)-4-penten-1-one] | 5.5 cm/s
4 | C=C(C)C1CC=C(C)CC1 (stereo not shown) [1-methyl-4-(prop-1-en-2-yl)cyclohex-1-ene] | 7 cm/s and 5.2 cm/s
5 | CC1=CCC(=C(C)C)CC1 [1-methyl-4-(propan-2-ylidene)cyclohex-1-ene] | 8 cm/s
6 | CC1CCC2C(C)(C)C3CC12CC1OC(C)(C)OC13C (stereo not shown) [2,2,5,8,8,9a-hexamethyloctahydro-3aH-4a,9-methanoazuleno[5,6-d][1,3]dioxole] | 6 cm/s
7 | CC1=CCC2CC1C2(C)C (stereo not shown) [2,6,6-trimethylbicyclo[3.1.1]hept-2-ene] | 6 cm/s
8 | CC(C)=CCCC(C)C=O (stereo not shown) [2,6-dimethylhept-5-enal] | 8 cm/s
9 | O=CC[C@H]1C[C@H]2C[C@@H]1[C@@H]1CCC[C@H]21 [2-((3aR,4S,5R,7S,7aR)-octahydro-1H-4,7-methanoinden-5-yl)acetaldehyde] | 5.3 cm/s
10 | C=CCCC(=O)C(=C)C1CCCCC1 [2-cyclohexyl-1,6-heptadien-3-one] | 5 to 8 cm/s
11 | CCOc1cc(C)ccc1O [2-ethoxy-4-methylphenol] | 6 cm/s
12 | Cc1ccc(C(C)C)c(O)c1 [2-isopropyl-5-methylphenol] | 7 cm/s
13 | COc1ccc2ccccc2c1 [2-methoxynaphthalene] | 6 cm/s
14 | CCCCCCCCC(C)C=O (stereo not shown) [2-methyl decanal] | 7 cm/s
15 | CCCCCCC=CC#N [2-nonenenitrile] | 6 cm/s
16 | CCCCCC1CCCC1=O (stereo not shown) [2-pentylcyclopentan-1-one] | 7 cm/s
17 | CC(CC=O)CC(C)(C)C (stereo not shown) [3,5,5-trimethylhexanal] | 5.2 cm/s
18 | CC(=O)OCCC(C)CCC=C(C)C (stereo not shown) [3,7-dimethyloct-6-en-1-yl acetate] | 5.1 cm/s
19 | CC(C)=CCCC(C)CC#N (stereo not shown) [3,7-dimethyloct-6-enenitrile] | 6 cm/s
20 | C=CC(C)(O)CCC=C(C)C (stereo not shown) [3,7-dimethylocta-1,6-dien-3-ol] | 6 cm/s
21 | C=CC(C)(CCC=C(C)C)OC(C)=O (stereo not shown) [3,7-dimethylocta-1,6-dien-3-yl acetate] | 6 cm/s
22 | CC(C=O)Cc1ccc(C(C)(C)C)cc1 (stereo not shown) [3-(4-(tert-butyl)phenyl)-2-methylpropanal] | 6 cm/s
23 | CCc1ccc(CC(C)(C)C=O)cc1 [3-(4-ethylphenyl)-2,2-dimethylpropanal] | 6 cm/s
24 | CC1=CCC(C(C)CC=O)CC1 (stereo not shown) [3-(4-methylcyclohex-3-en-1-yl)butanal] | 6 cm/s

Row | Compound | EV (Experimental velocity)
25 | CCCCCC1=C(C)CCC1=O [3-methyl-2-pentylcyclopent-2-en-1-one] | 6 cm/s
26 | Cc1coc2ccc(O)cc12 [3-methylbenzofuran-5-ol] | 5.3 cm/s
27 | COC(=O)C=Cc1ccccc1 [3-phenyl 2-propenoic acid, methyl ester] | 8 cm/s
28 | CC(C)C(=O)OC1CC2CC1C1C=CCC21 (stereo not shown) [3a,4,5,6,7,7a-hexahydro-1H-4,7-methanoinden-5-yl isobutyrate] | 5.3 cm/s
29 | CCC(=O)OC1CC2CC1C1C=CCC21 (stereo not shown) [3a,4,5,6,7,7a-hexahydro-1H-4,7-methanoinden-5-yl propionate] | 6 cm/s
30 | C=CCc1ccc(O)c(OC)c1 [4-allyl-2-methoxyphenol] | 5.04 cm/s
31 | COc1ccc(C=O)cc1 [4-methoxybenzaldehyde] | 5.2 cm/s
32 | Cc1ncsc1CCO [4-methyl-5-thiazoleethanol] | 5 cm/s
33 | CC(=O)CCc1ccccc1 [4-phenylbutan-2-one] | 7 cm/s
34 | CC1=CC2CC(C=O)C1CC2C(C)C (stereo not shown) [8-isopropyl-6-methylbicyclo[2.2.2]oct-5-ene-2-carbaldehyde] | 6 cm/s
35 | CC1CCC2(CCC(=O)O2)CC1 (stereo not shown) [8-methyl-1-oxaspiro(4.5)decan-2-one] | 5 to 8 cm/s
36 | CC1(C)[C@@H]2CC[C@@]1(C)[C@H](O)C2 [(1R,2R,4R)-1,7,7-trimethylbicyclo[2.2.1]heptan-2-ol] | 7 cm/s
37 | CC1=C[C@@H](C)[C@@H](C=O)CC1 [(1S,2R)-2,4-dimethylcyclohex-3-ene-1-carbaldehyde] | 8 cm/s
38 | CC(C)(C)[C@@H]1CCCC[C@@H]1O [(1S,2S)-2-(tert-butyl)cyclohexan-1-ol] | 6 cm/s
39 | CCCOC(C)OCCc1ccccc1 (stereo not shown) [(2-(1-propoxyethoxy)ethyl)benzene] | 6 cm/s
40 | CC/C(C)=C\CC/C(C)=C\C#N [(2Z,6Z)-3,7-dimethylnona-2,6-dienenitrile] | 6 cm/s and 8 cm/s
41 | O=CC1CC[C@H]2[C@@H]3CC[C@@H](C3)[C@@H]12 (stereo partly drawn) [(3aS,4R,7S,7aR)-octahydro-1H-4,7-methanoindene-1-carbaldehyde] | 6 cm/s
42 | C/C=C/c1ccc(OC)cc1 [(E)-1-methoxy-4-(prop-1-en-1-yl)benzene] | 6 cm/s
43 | CC1=CCC(/C=C/C(C)(C)C(C)O)C1(C)C (stereo not shown) [(E)-3,3-dimethyl-5-(2,2,3-trimethylcyclopent-3-en-1-yl)pent-4-en-2-ol] | 5.1 cm/s
44 | CC(C)=CCC/C(C)=C/COC=O [(E)-3,7-dimethylocta-2,6-dien-1-yl formate] | 5.2 cm/s
45 | CC(=O)/C(C)=C/C1C(C)=CCCC1(C)C (stereo not shown) [(E)-3-methyl-4-(2,6,6-trimethylcyclohex-2-en-1-yl)but-3-en-2-one] | 6 cm/s
46 | CC1=CCC(/C=C/C(C)C(C)O)C1(C)C (stereo not shown) [(E)-3-methyl-5-(2,2,3-trimethylcyclopent-3-en-1-yl)pent-4-en-2-ol] | 6 cm/s
47 | CC(=O)/C=C/C1=C(C)CCCC1(C)C [(E)-4-(2,6,6-trimethylcyclohex-1-en-1-yl)but-3-en-2-one] | 7 cm/s
48 | CC(=O)/C=C/C1C(C)=CCCC1(C)C (stereo not shown) [(E)-4-(2,6,6-trimethylcyclohex-2-en-1-yl)but-3-en-2-one] | 8 cm/s

Row | Compound | EV (Experimental velocity)
49 | CC/C=C(\C)C(O)CCCCC (stereo not shown) [(E)-4-methyldec-3-en-5-ol] | 7 cm/s
50 | CCC/C=C/CCCCC=O [(E)-dec-6-enal] | 8 cm/s
51 | CCCCCCCCCC/C=C/C#N [(E)-tridec-2-enenitrile] | 6 cm/s
52 | C=CCCCCCCC/C=C/CC#N [(E)-trideca-3,12-dienenitrile] | 6 cm/s
53 | C/C=C/CCCCCCCC=O [(E)-undec-9-enal] | 7 cm/s
54 | CC/C=C\CCOC(=O)OC [(Z)-hex-3-en-1-yl methyl carbonate] | 7 cm/s
55 | c1ccc2[nH]ccc2c1 [Accord 1H-indole, 1H-indole] | 6 cm/s
56 | CCCCCCC=CC=O [Accord 2-nonenal, 2-nonenal] | 6 cm/s
57 | O=CC=Cc1ccccc1 [cinnamaldehyde] | 7 cm/s
58 | CCCCCCCCCCCC=O [dodecanal] | 6 cm/s
59 | CCCCCCCCCCCC#N [dodecanenitrile] | 6 cm/s
60 | CCOC(=O)C(C)C [ethyl isobutyrate] | 5.2 cm/s
61 | CCCCCC=O [hexanal] | 5.3 cm/s
62 | COC(=O)c1ccccc1C [methyl 2-methylbenzoate] | 7 cm/s
63 | CCCCCCCC=O [octanal] | 8 cm/s
64 | CC(=O)Oc1ccc(C)cc1 [p-tolyl acetate] | 6 cm/s
65 | CC1=CCC(C(C)(C)S)CC1 (stereo not shown) [para menth-1-ene-8-thiol] | 6 cm/s
66 | CC(C)C1CCC(CS)C(S)C1 (stereo not shown) [para menthane-2,7-dithiol] | 5 cm/s
67 | CC(=O)OCCc1ccccc1 [phenyl ethyl acetate] | 7 cm/s
68 | CCCCC/C=C/CCC=O [trans 4-decen-1-al] | 8 cm/s
69 | CCCCCCCCC/C=C/C=O [trans-2-dodecanal] | 6 cm/s
70 | CCCCCCCCCCC=O [undecanal] | 6 cm/s

Reference: patent US11326126B2, “High performing, high impact bloom accord” (International Flavors & Fragrances Inc., priority 2016, dated 2022)
